# Laboratory results: PubChem BioAssay AID1508597 (Cure First, 2020)
# Aim: 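Genes whose silencing sensitises or protects ovarian cancer cells against rucaparib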 (primary screen)
# Cells: human ovarian carcinoma lines grown from tumours: OCI-P5x (papillary serous) and OCI-C5x (clear cell)
# Reagents: siRNA pool against human genes, 1.25 pmol siRNA per well
# Duration: 72 h or 96 h, depending on the cell culture
# Challenge: rucaparib 20 µM (about IC30) or vehicle, present until read-out
# Rucaparib or vehicle: Vehicle
# Cell line: OCI-P5x (serous)
# Measured: 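Luminescent ATP-based viability assay read 72 or 96 h after transfection, depending on culture, given as normalised percent viability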
# Reading the numbers: viability, normalised: higher = more viable cells remaining
# Active means: 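Active when normalised viability falls below 80 percent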
# Calls: active = viability under 80%; inactive = viability 80% or more
# This is an unselected part of the about 2,100 reagents, in one setting of the screen. 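Calls flag viability under 80% in either arm, not effects specific to rucaparib; the reference for percent is not stated.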 Some reagents were tested in more than one well and are listed for each. Not given: the 100% reference.
gene,technical replicate,"viability, normalised (%)",outcome
FER (FER tyrosine kinase),1,84.6,inactive
FER (FER tyrosine kinase),2,87.8,inactive
FER (FER tyrosine kinase),3,75,active
TEC (transient erythroblastopenia of childhood),1,101,inactive
TEC (transient erythroblastopenia of childhood),2,80.5,inactive
TEC (transient erythroblastopenia of childhood),3,68.4,active
TAOK2 (TAO kinase 2),1,129,inactive
TAOK2 (TAO kinase 2),2,114,inactive
TAOK2 (TAO kinase 2),3,85.7,inactive
CRY2 (cryptochrome circadian regulator 2),1,71.3,active
CRY2 (cryptochrome circadian regulator 2),2,55.5,active
CRY2 (cryptochrome circadian regulator 2),3,73.3,active
MAP2K3 (mitogen-activated protein kinase kinase 3),1,70.1,active
MAP2K3 (mitogen-activated protein kinase kinase 3),1,95.1,inactive
MAP2K3 (mitogen-activated protein kinase kinase 3),2,69.7,active
MAP2K3 (mitogen-activated protein kinase kinase 3),2,80.7,inactive
MAP2K3 (mitogen-activated protein kinase kinase 3),3,46.7,active
MAP2K3 (mitogen-activated protein kinase kinase 3),3,79.9,active
PRKAB2 (protein kinase AMP-activated non-catalytic subunit beta 2),1,71.9,active
PRKAB2 (protein kinase AMP-activated non-catalytic subunit beta 2),2,101,inactive
PRKAB2 (protein kinase AMP-activated non-catalytic subunit beta 2),3,97.3,inactive
"ABL1 (ABL proto-oncogene 1, non-receptor tyrosine kinase)",1,83.7,inactive
"ABL1 (ABL proto-oncogene 1, non-receptor tyrosine kinase)",1,72.2,active
"ABL1 (ABL proto-oncogene 1, non-receptor tyrosine kinase)",2,60.8,active
"ABL1 (ABL proto-oncogene 1, non-receptor tyrosine kinase)",2,85.8,inactive
"ABL1 (ABL proto-oncogene 1, non-receptor tyrosine kinase)",3,69.2,active
"ABL1 (ABL proto-oncogene 1, non-receptor tyrosine kinase)",3,65.5,active
RINT1 (RAD50 interactor 1),1,61.7,active
RINT1 (RAD50 interactor 1),2,74.3,active
RINT1 (RAD50 interactor 1),3,75.2,active
YY1 (YY1 transcription factor),1,68.8,active
YY1 (YY1 transcription factor),1,63.9,active
YY1 (YY1 transcription factor),2,60.8,active
YY1 (YY1 transcription factor),2,80.5,inactive
YY1 (YY1 transcription factor),3,65.5,active
YY1 (YY1 transcription factor),3,57.1,active
PCBD1 (pterin-4 alpha-carbinolamine dehydratase 1),1,71,active
PCBD1 (pterin-4 alpha-carbinolamine dehydratase 1),2,73.8,active
PCBD1 (pterin-4 alpha-carbinolamine dehydratase 1),3,83.4,inactive
SLC1A4,1,58.9,active
SLC1A4,2,58.9,active
SLC1A4,3,58.4,active
EIF4A3 (eukaryotic translation initiation factor 4A3),1,24.6,active
EIF4A3 (eukaryotic translation initiation factor 4A3),2,25,active
EIF4A3 (eukaryotic translation initiation factor 4A3),3,29.8,active
UBN1 (ubinuclein 1),1,56.1,active
UBN1 (ubinuclein 1),2,58.2,active
UBN1 (ubinuclein 1),3,36,active
"HCK (HCK proto-oncogene, Src family tyrosine kinase)",1,95.8,inactive
"HCK (HCK proto-oncogene, Src family tyrosine kinase)",1,74.6,active
"HCK (HCK proto-oncogene, Src family tyrosine kinase)",2,116,inactive
"HCK (HCK proto-oncogene, Src family tyrosine kinase)",2,62.4,active
"HCK (HCK proto-oncogene, Src family tyrosine kinase)",3,45.2,active
"HCK (HCK proto-oncogene, Src family tyrosine kinase)",3,113,inactive
PASK (PAS domain containing serine/threonine kinase),1,58.4,active
PASK (PAS domain containing serine/threonine kinase),2,50.5,active
PASK (PAS domain containing serine/threonine kinase),3,56.9,active
PMS2P3,1,78.4,active
PMS2P3,2,67.8,active
PMS2P3,3,73.8,active
DDX56 (DEAD-box helicase 56),1,54,active
DDX56 (DEAD-box helicase 56),2,62.8,active
DDX56 (DEAD-box helicase 56),3,63,active
CETN2 (centrin 2),1,42,active
CETN2 (centrin 2),2,42.8,active
CETN2 (centrin 2),3,47.7,active
PCDHB6 (protocadherin beta 6),1,68.6,active
PCDHB6 (protocadherin beta 6),2,64.9,active
PCDHB6 (protocadherin beta 6),3,115,inactive
GAD1 (glutamate decarboxylase 1),1,55.7,active
GAD1 (glutamate decarboxylase 1),2,67.3,active
GAD1 (glutamate decarboxylase 1),3,71,active
CDK11B (cyclin dependent kinase 11B),1,84.1,inactive
CDK11B (cyclin dependent kinase 11B),2,94.1,inactive
CDK11B (cyclin dependent kinase 11B),3,92.9,inactive

5 entries already listed, ordered by “viability, normalised (%)”, highest first:
gene,technical replicate,"viability, normalised (%)",outcome
MAP2K3 (mitogen-activated protein kinase kinase 3),1,95.1,inactive
MAP2K3 (mitogen-activated protein kinase kinase 3),2,80.7,inactive
CRY2 (cryptochrome circadian regulator 2),3,73.3,active
MAP2K3 (mitogen-activated protein kinase kinase 3),1,70.1,active
MAP2K3 (mitogen-activated protein kinase kinase 3),2,69.7,active
